Data reported in the supplement of paper PMC6078165.

Tested on: MDAMB231
Test: relative JC-1 red fluorescence (viability) vs pre-drug, coculture with fibroblast (fraction); higher = more viable cancer cells
Experimental: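 JC-1 labelled TNBC cells cocultured 1:1 (1,500 cells each) with CellTrace Violet stained primary or stromal fibroblasts in 384-well plates in FluoroBrite medium, treated with one of 42 anticancer drugs at 0.1, 1, 10 or 100 uM. JC-1 red fluorescence (mitochondrial integrity in cancer cells only) was read by plate reader every 8 h for 72 h. Values are normalised to each well's pre-drug value. The stock of one drug was tenfold lower, so its dose labels may be too high.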

N#Cc1ccc(C(c2ccc(C#N)cc2)n2cncn2)cc1 [Letrozole]
relative JC-1 red fluorescence
Conditions	8 h	16 h	24 h	32 h	40 h	48 h	56 h	64 h	72 h
10 µM, coculture fibroblast: C12385	0.762	0.761	0.651	0.668	0.613	0.582	0.539	0.525	0.503
10 µM, coculture fibroblast: H6013	0.898	0.848	0.805	0.777	0.727	0.685	0.68	0.665	0.623
10 µM, coculture fibroblast: H6019	0.7921	0.749	0.656	0.67	0.625	0.6	0.56	0.543	0.509
10 µM, coculture fibroblast: H6076	0.869	0.781	0.708	0.672	0.631	0.594	0.56	0.55	0.531
10 µM, coculture fibroblast: H6231	0.906	0.8047	0.7211	0.6701	0.614	0.58	0.536	0.508	0.491
10 µM, coculture fibroblast: HADF	0.8777	0.833	0.783	0.73	0.693	0.633	0.625	0.597	0.549
10 µM, coculture fibroblast: HCFa	0.904	0.854	0.804	0.767	0.7073	0.6422	0.61761	0.5876	0.547
10 µM, coculture fibroblast: HCPF	0.872	0.772	0.6958	0.659	0.598	0.549	0.502	0.473	0.448
10 µM, coculture fibroblast: HHSteC	0.8877	0.846	0.795	0.751	0.7	0.654	0.61	0.588	0.545
10 µM, coculture fibroblast: HMF	0.891	0.82	0.774	0.738	0.697	0.658	0.619	0.589	0.57
10 µM, coculture fibroblast: HPFa	0.9305	0.8863	0.8163	0.7501	0.719	0.6759	0.6277	0.585	0.5289
10 µM, coculture fibroblast: HUF	0.813	0.722	0.7056	0.6012	0.548	0.521	0.4759	0.475	0.455
10 µM, coculture fibroblast: Hs5	0.888	0.818	0.756	0.704	0.652	0.599	0.558	0.526	0.497
10 µM, coculture fibroblast: Hs27A	0.89	0.834	0.789	0.755	0.702	0.627	0.625	0.602	0.559
10 µM, coculture fibroblast: Hs343T	0.87	0.77	0.7	0.662	0.602	0.546	0.487	0.468	0.43
10 µM, coculture fibroblast: WS1	0.7708	0.704	0.678	0.588	0.538	0.512	0.468	0.463	0.436
100 µM, coculture fibroblast: C12385	0.7702	0.759	0.65	0.663	0.609	0.584	0.554	0.539	0.519
100 µM, coculture fibroblast: H6013	0.9	0.833	0.819	0.8161	0.782	0.766	0.772	0.749	0.72
100 µM, coculture fibroblast: H6019	0.818	0.756	0.704	0.7	0.679	0.67	0.642	0.633	0.595
100 µM, coculture fibroblast: H6076	0.921	0.852	0.803	0.79	0.758	0.724	0.692	0.673	0.66
100 µM, coculture fibroblast: H6231	0.862	0.895	0.832	0.798	0.763	0.733	0.677	0.661	0.631
100 µM, coculture fibroblast: HADF	0.915	0.894	0.857	0.849	0.823	0.772	0.759	0.743	0.706
100 µM, coculture fibroblast: HCFa	0.883	0.818	0.795	0.779	0.739	0.724	0.703	0.681	0.647
100 µM, coculture fibroblast: HCPF	0.906	0.838	0.785	0.786	0.75	0.73	0.7	0.675	0.663
100 µM, coculture fibroblast: HHSteC	0.932	0.885	0.867	0.856	0.821	0.803	0.768	0.744	0.712
100 µM, coculture fibroblast: HMF	0.872	0.875	0.806	0.826	0.758	0.785	0.734	0.798	0.754
100 µM, coculture fibroblast: HPFa	0.956	0.889	0.845	0.8021	0.7741	0.7442	0.687	0.659	0.6036
100 µM, coculture fibroblast: HUF	0.885	0.8007	0.77794	0.689	0.626	0.6017	0.5414	0.5318	0.5091
100 µM, coculture fibroblast: Hs5	0.909	0.842	0.803	0.764	0.716	0.674	0.638	0.619	0.6
100 µM, coculture fibroblast: Hs27A	0.9069	0.8618	0.8285	0.805	0.753	0.677	0.675	0.646	0.598
100 µM, coculture fibroblast: Hs343T	0.9357	0.859	0.811	0.8	0.748	0.707	0.644	0.623	0.594
100 µM, coculture fibroblast: WS1	0.791	0.759	0.67	0.672	0.629	0.611	0.562	0.545	0.521

Values are relative to the signal before dosing, not to a vehicle control; the signal also falls without drug.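 Fibroblast labels name human fibroblasts: mostly primary ones from tissues such as uterus (C12385, HUF), lung (H6013), bone (Hs27A), adrenal (HADF) and skin (WS1), plus mammary HMF and breast cancer-associated Hs343T. The cancer cells are basal-like or mesenchymal-like triple-negative breast cancer lines. The paper calls a changed response a hit when it shifts by more than 3x the replicate standard deviation. The tissue of the other fibroblasts is not given here.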
